Some of these results come from one statement about several compounds together. For at least one compound, name, drawing or mass did not settle the structure.
tested on: PDE4; experiment: Inhibition of PDE4 activity (cytosol from human neutrophils, [3H]cAMP hydrolysis); type: biochemical; conditions: 0.5 μM cAMP, Motapizone 1 μM included to suppress PDE3

Compound	inhibitory values measured as -logIC50 (mol/l), inhibition of PDE4 activity
COc1cc2c(cc1OC)[C@H]1CCCC[C@H]1N=C2c1ccc(C(=O)Nc2nc[nH]n2)cc1 [Compound 6, 4-((4aR,10bR)-8,9-Dimethoxy-1,2,3,4,4a,10b-hexahydro-phenanthridin-6-yl)-N-(1H-[1,2,4]triazol-3-yl)-benzamide]	higher than 8 mol/l
COc1cc2c(cc1OC)[C@H]1CCCC[C@H]1N=C2c1ccc(C(=O)NC(=N)N2CCc3ccccc3C2)cc1 [Compound 8, N-[1-(Tetrahydroisoquinolin-2-yl)-1imino-methyl]-4-((4aR,10bR)-8,9-dimethoxy-1,2,3,4,4a,10b-hexahydro-phenanthridin-6-yl)-benzamide]	higher than 8 mol/l
COc1cc2c(cc1OC)C1CCCCC1N=C2c1ccc(C(=O)NC(=N)Nc2ccccc2)cc1 [Compound 10, N{1-[4-((4aR,10bR)-8,9-Dimethoxy-1,2,3,4,4a,10b-hexahydro-phenanthridin-6-yl)-phenyl]-methanoyl}-N′-phenyl-quanidine]	higher than 8 mol/l
CCN(CC)C(=N)NC(=O)c1ccc(C2=N[C@@H]3CCCC[C@@H]3c3cc(OC)c(OC)cc32)cc1 [Compound 1, N′-{-[4-((4aR,10bR)-8,9-Dimethoxy-1,2,3,4,4a,10b-hexahydrophenanthridin-6yl)-phenyl]-methanoyl}-N,N-diethylquanidine]	higher than 8 mol/l
COc1cc2c(cc1OC)[C@H]1CCCC[C@H]1N=C2c1cccc(C(=O)NC(=N)N2CCOCC2)c1 [Compound 13, 3-((4aR,10bR)-8,9-Dimethoxy-1,2,3,4,4a,10b-hexahydrophenanthridin-6-yl)-N-(1-imino-1-morpholin-4yl-methyl)-benzamide]	higher than 8 mol/l
CCN(CC)C(=N)NC(=O)c1cccc(C2=NC3CCCCC3c3cc(OC)c(OC)cc32)c1 [Compound 12, N′-{1[3-((4aR,10bR)-8,9-Dimethoxy-1,2,3,4,a,10b-hexahydrophenanthridin-6-yl)-phenyl]-methanoyl}-N,N-diethylquanidine]	higher than 8 mol/l
COc1cc2c(cc1OC)C1CCCCC1N=C2c1ccc(C(=O)NC(=N)N2CCN(C)CC2)cc1 (stereo not drawn) [Compound 5]	higher than 8 mol/l
COc1cc2c(cc1OC)[C@H]1CCCC[C@H]1N=C2c1ccc(C(=O)NC(=N)n2nc(C)cc2C)cc1 [Compound 11, 4((4aR,10bR)-8,9-Dimethoxy-1,2,3,4,4a,10b-hexahydro-phenanthridin-6-yl)-N-[1-(3,5-dimethyl-pyrazol-1-yl)-1-imino-methyl]-benzamide]	higher than 8 mol/l
COc1cc2c(cc1OC)C1CCCCC1N=C2c1ccc(C(=O)NC(=N)N2CCOCC2)cc1 (stereo not drawn) [Compound 3]	higher than 8 mol/l
COc1cc2c(cc1OC)C1CCCCC1N=C2c1ccc(C(=O)NC(=N)N(C)C)cc1 [Compound 4, N′-{1-[4-((4aR,10bR)-8,9-Dimethoxy-1,2,3,4,4a,10b-hexahydrophenanthridin-6-yl)-phenyl]-methanoyl}-N,N-dimethylquanidine]	higher than 8 mol/l
COc1cc2c(cc1OC)C1CCCCC1N=C2c1ccc(C(=O)NC(=N)N2CCCC2)cc1 [Compound 9, 4-((4aR,10bR)-8,9-Dimethoxy-1,2,3,4,4a.10b-hexahydro-phenanthridin-6-yl)-N-(1-imino-1-pyrrolidin-1-yl-methyl)-benzamide]	higher than 8 mol/l
COc1cc2c(cc1OC)C1CCCCC1N=C2c1ccc(C(=O)Nc2ncc[nH]2)cc1 (stereo not drawn) [Compound 2, 4-((4aR.10bR)8,9-Dimethoxy-1,2,3,4,4a.10b-hexahydrophenanthridin-6-yl)-N-(1H-imidazol-2-yl)-benzamide]	higher than 8 mol/l
